From paper PMC10710504
Results are given in words; binding and its absence hold for the method and conditions named. Binding seen in cells or lysates may run through a third protein. Some results given as binding are weak or reduced against the parent protein; the word gives no strength.

By UniProt entry, the sequences of proteins in these tests, tags left out. Residues count along the entry.
UniProt Q08345, residues 19-913: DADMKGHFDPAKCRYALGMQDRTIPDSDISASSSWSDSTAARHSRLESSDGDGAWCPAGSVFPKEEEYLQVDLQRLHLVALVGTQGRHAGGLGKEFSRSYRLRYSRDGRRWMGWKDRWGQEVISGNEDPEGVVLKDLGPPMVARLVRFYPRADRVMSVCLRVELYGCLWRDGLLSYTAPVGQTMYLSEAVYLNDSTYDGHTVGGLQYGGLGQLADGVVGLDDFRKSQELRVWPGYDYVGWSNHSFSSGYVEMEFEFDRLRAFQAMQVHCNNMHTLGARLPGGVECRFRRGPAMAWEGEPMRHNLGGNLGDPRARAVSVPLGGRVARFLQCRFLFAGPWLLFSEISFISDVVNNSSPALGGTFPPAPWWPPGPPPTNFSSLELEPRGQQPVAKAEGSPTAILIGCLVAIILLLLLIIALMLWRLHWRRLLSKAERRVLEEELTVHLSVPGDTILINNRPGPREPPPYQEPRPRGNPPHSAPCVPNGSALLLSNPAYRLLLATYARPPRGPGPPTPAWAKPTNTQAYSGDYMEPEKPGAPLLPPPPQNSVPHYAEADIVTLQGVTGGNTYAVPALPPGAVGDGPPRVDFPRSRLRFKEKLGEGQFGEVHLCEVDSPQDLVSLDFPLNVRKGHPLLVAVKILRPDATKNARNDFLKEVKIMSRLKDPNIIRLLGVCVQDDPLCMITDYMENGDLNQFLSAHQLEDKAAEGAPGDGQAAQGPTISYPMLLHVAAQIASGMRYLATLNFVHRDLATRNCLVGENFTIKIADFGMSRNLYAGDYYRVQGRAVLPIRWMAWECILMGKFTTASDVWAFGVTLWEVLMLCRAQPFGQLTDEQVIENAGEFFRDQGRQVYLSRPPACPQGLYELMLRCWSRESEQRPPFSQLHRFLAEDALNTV
UniProt P31749: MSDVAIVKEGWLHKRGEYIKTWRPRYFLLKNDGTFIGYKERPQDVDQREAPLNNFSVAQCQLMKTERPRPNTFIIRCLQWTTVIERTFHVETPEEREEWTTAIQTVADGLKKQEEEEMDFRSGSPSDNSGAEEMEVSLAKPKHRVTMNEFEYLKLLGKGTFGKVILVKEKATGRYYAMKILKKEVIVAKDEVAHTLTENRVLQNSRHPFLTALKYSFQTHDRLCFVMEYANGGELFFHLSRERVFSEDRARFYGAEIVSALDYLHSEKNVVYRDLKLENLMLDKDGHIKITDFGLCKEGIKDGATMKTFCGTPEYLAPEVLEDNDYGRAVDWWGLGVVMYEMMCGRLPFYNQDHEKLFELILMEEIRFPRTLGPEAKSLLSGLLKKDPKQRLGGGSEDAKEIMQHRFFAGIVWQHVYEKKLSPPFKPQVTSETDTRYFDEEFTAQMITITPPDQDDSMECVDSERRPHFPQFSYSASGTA

T1: STX17 (human (endogenous in PANC-1)), P56962
T1 chain: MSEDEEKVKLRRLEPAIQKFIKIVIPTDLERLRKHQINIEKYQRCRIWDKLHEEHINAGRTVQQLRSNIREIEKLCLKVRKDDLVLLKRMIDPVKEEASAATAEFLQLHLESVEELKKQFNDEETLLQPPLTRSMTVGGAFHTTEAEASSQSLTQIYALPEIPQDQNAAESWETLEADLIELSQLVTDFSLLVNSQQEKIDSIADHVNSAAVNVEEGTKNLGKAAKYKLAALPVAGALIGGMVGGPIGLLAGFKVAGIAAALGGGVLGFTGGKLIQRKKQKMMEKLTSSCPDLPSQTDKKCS

B1: VAMP8, Q9BV40 1-100 (protein)
chain: MEEASEGGGNDRVRNLQSEVEGVKNIMTQNVERILARGENLEHLRNKTEDLEATSEHFKTTSQKVARKFWWKNVKMIVLICVIVFIIILFIVLFATGAFS

Legend:
[1] = target: DDR1 (discoidin domain receptor 1) (human (endogenous in PDAC cells)) (UniProt Q08345); test: co-IP; endogenous DDR1 immunoprecipitated from whole-cell lysates of PDAC cells treated with SH2 TrM-(Arg)9 or PBS; cells pre-treated with collagen (40 µg/mL, 24 h); IgG as control
[2] = target: T1, STX17 (human (endogenous in PANC-1)), …; test: co-IP; endogenous STX17 with VAMP8 and SNAP29 from PANC-1 whole-cell lysates; cells treated with SH2 TrM-(Arg)9, siDDR1 or transfected with Flag-DDR1 Y792F; IgG as control; conditions: remark: other sources report otherwise
[3] = target: T1, STX17 (human (endogenous in PANC-1)), …; test: co-IP; STX17 with VAMP8 and SNAP29 from PANC-1/GEM (gemcitabine-resistant) whole-cell lysates; cells with or without SH2 TrM-(Arg)9 (1 µM, 2 h); IgG as control; conditions: remark: other sources report otherwise

| Molecule | binding [1] | binding [2] | binding [3] |
| --- | --- | --- | --- |
| Akt1 (from UniProt P31749 1-480) | binds |  |  |
| Beclin1 (from UniProt Q14457 1-450) | binds |  |  |
| B1 |  | binds | binds |
